Measurements taken from article doi:10.1101/2020.09.30.320333.

Biological target: T1, REEP4-TurboID-HA (human) (UniProt Q9H6H4)
T1 sequence: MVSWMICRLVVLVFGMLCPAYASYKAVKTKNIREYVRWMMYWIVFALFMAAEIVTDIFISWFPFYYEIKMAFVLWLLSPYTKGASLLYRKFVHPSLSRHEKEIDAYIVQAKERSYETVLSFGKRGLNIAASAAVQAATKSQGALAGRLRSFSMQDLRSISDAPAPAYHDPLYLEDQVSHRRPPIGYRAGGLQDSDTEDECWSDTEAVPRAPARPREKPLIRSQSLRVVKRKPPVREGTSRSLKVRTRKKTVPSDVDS
Experiment: proximity labelling

binding: binds
B1: Rab3GAP2 (protein, UniProt Q9H2M9 1-1393)
chain: MACSIVQFCYFQDLQAARDFLFPHLREEILSGALRRDPSKSTDWEDDGWGAWEENEPQEPEEEGNTCKTQKTSWLQDCVLSLSPTNDLMVIAREQKAVFLVPKWKYSDKGKEEMQFAVGWSGSLNVEEGECVTSALCIPLASQKRSSTGRPDWTCIVVGFTSGYVRFYTENGVLLLAQLLNEDPVLQLKCRTYEIPRHPGVTEQNEELSILYPAAIVTIDGFSLFQSLRACRNQVAKAAASGNENIQPPPLAYKKWGLQDIDTIIDHASVGIMTLSPFDQMKTASNIGGFNAAIKNSPPAMSQYITVGSNPFTGFFYALEGSTQPLLSHVALAVASKLTSALFNAASGWLGWKSKHEEEAVQKQKPKVEPATPLAVRFGLPDSRRHGESICLSPCNTLAAVTDDFGRVILLDVARGIAIRMWKGYRDAQIGWIQTVEDLHERVPEKADFSPFGNSQGPSRVAQFLVIYAPRRGILEVWSTQQGPRVGAFNVGKHCRLLYPGYKIMGLNNVTSQSWQPQTYQICLVDPVSGSVKTVNVPFHLALSDKKSERAKDMHLVKKLAALLKTKSPNLDLVETEIKELILDIKYPATKKQALESILASERLPFSCLRNITQTLMDTLKSQELESVDEGLLQFCANKLKLLQLYESVSQLNSLDFHLDTPFSDNDLALLLRLDEKELLKLQALLEKYKQENTRTNVRFSDDKDGVLPVKTFLEYLEYEKDVLNIKKISEEEYVALGSFFFWKCLHGESSTEDMCHTLESAGLSPQLLLSLLLSVWLSKEKDILDKPQSICCLHTMLSLLSKMKVAIDETWDSQSVSPWWQQMRTACIQSENNGAALLSAHVGHSVAAQISNNMTEKKFSQTVLGADSEALTDSWEALSLDTEYWKLLLKQLEDCLILQTLLHSKGNTQTSKVSSLQAEPLPRLSVKKLLEGGKGGIADSVAKWIFKQDFSPEVLKLANEERDAENPDEPKEGVNRSFLEVSEMEMDLGAIPDLLHLAYEQFPCSLELDVLHAHCCWEYVVQWNKDPEEARFFVRSIEHLKQIFNAHVQNGIALMMWNTFLVKRFSAATYLMDKVGKSPKDRLCRRDVGMSDTAMTSFLGSCLDLLQILMEADVSRDEIQVPVLDTEDAWLSVEGPISIVELALEQKHIHYPLVEHHSILCSILYAVMRFSLKTVKPLSLFDSKGKNAFFKDLTSIQLLPSGEMDPNFISVRQQFLLKVVSAAVQAQHSATKVKDPTEEATPTPFGKDQDWPALAVDLAHHLQVSEDVVRRHYVGELYNYGVDHLGEEAILQVHDKEVLASQLLVLTGQRLAHALLHTQTKEGMELLARLPPTLCTWLKAMDPQDLQNTEVPIATTAKLVNKVIELLPEKHGQYGLALHLIEAVEAISLPSL

No constants are given. Whether binding was seen depends on the method and setting. Binding seen in cells or lysates may run through a third protein. These calls come from enrichment with a bait or labelling near it, and not all partners need be listed. Where a sequence is shown, tags or fusion partners need not be part of it.
